The text below walks through data of PubChem BioAssay AID2685 (National Center for Advancing Translational Sciences (NCATS), 2010).

This assay is described as follows: qHTS Assay for Lipid Storage Modulators in Drosophila S3 Cells.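 For cell number change: cells counted by Cell Tracker Red CMTPX staining in the red channel.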 Particulars: BODIPY lipid droplet fluorescence, 18-24 h; for cell number change: measured here: cell count max response, cells fed with added oleic acid. In a few lines:
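Drosophila S3 cells got compounds at several concentrations plus oleic acid (400 uM solution). Laser-scanning cytometry with 488 nm excitation read lipid droplets at 500-530 nm and cells at 575-640 nm. Percent activity was relative to 20 uM Triacsin C.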

The mark [1] stands for this setting: measured here: lipid fluorescence (Fed channel) AC50, cells fed with added oleic acid.
Where [2] appears, read: measured here: cell number channel AC50, cells fed with added oleic acid.

This is one part of the list. Shown are side measurements of this screen, not its main read-out; they come without a call. Compounds called inactive in the main read-out are mostly missing here. The note in brackets gives the kind of curve behind each potency; many fits are weak.

Broadly, the AC50 is the midpoint of the concentration-response curve, whichever way the signal moves. Lower therefore signals greater potency. Turning to `COc1cccc2c1N1C(=O)c3c(C(=O)O)cccc3C1CC2(C)C` (stereo not given), the cell number change was -7.1%. In addition, the AC50 under setting [1] is 0.00461 µM [falling, full curve, poor fit].

With `COC(=O)COc1ccc(/C=C2\SC(=O)N(CC(=O)Nc3ccccc3F)C2=O)cc1`, the cell number change turned out to be 29.6%. Under setting [1], the AC50 was 3.66 µM [rising, full curve].

As to `COc1ccc(-n2nc(C(=O)NCC(=O)N3CCN(c4ccccc4)CC3)c3ccccc3c2=O)c(OC)c1`, the cell number change is 11.7%.

Consider `O=C(CCNC(=O)c1ccccc1Cl)Nc1nc2ccc(F)cc2s1`, for which the cell number change is -25.8%.

On to `CC(O)CSc1nc2c(c(=O)[nH]c(=O)n2C)n1Cc1ccccc1` (stereo not given), for which the cell number change is -1.05%. Moreover, the AC50 under setting [1] was 29.1 µM [rising, single point].

Regarding `S=c1[nH]nc(C2CCCCC2)n1/N=C/c1ccccc1Cl`, the cell number change is -50.4%. Also, under setting [2], the AC50 was 18.4 µM [falling, single point]. Further, under setting [1], the AC50 was 29.1 µM [falling, single point].

With `CCOC(=O)c1coc(CNC(=O)c2c(C)oc3c2CCCC3)c1`, the cell number change amounted to 57.8%. For the same compound, the AC50 under setting [2] is 3.26 µM [rising, partial curve]. Moreover, the AC50 under setting [1] is 14.6 µM [rising, partial curve].

With `COCCNC(=S)N=Nc1c(O)[nH]c2c(C)cc(C)cc12`, the cell number change came to 84.5%. In addition, under setting [2], the AC50 is 1.46 µM [rising, full curve]. The AC50 under setting [1] was 23.1 µM [rising, single point].

Turning to `COc1cc(S(=O)(=O)NCCOC23CC4CC(CC(C4)C2)C3)c(OC)cc1Cl`, the cell number change is -1.66%.

In the case of `CCc1c(C)nc(SCC(=O)CC(=O)OC(C)C)c(C#N)c1C`, the cell number change amounted to 32.4%. Besides, under setting [1], the AC50 is 29.1 µM [rising, single point].

For the compound `Cc1ccc(CNC(=O)CC2(CC3=NS(=O)(=O)c4ccccc4N3)CCCC2)cc1`, the cell number change was 18.6%. For the same compound, under setting [1], the AC50 is 18.4 µM [falling, single point].

Take `Cc1ccc(C)c(NC(=S)c2nc3ccccc3s2)c1`: the cell number change is -43.2%. The AC50 under setting [2] was 23.1 µM [falling, single point]. Also, under setting [1], the half-maximal activity concentration (AC50) is 29.1 µM [falling, single point].

As for `COc1ccc(Cl)cc1C(=O)Nn1cnnc1`, under setting [1], the AC50 is 6.51 µM [rising, single point].

With `Nc1nc(SCC(=O)N2CCN(S(=O)(=O)c3ccc(Cl)cc3)CC2)n[nH]1`, the cell number change was 103%. In addition, the AC50 under setting [2] is 0.00731 µM [rising, full curve, poor fit].

For `COc1cc(SC)ccc1C(=O)NC1CCCCC1`, the AC50 is, setting by setting: under setting [2], 0.00461 µM [falling, full curve, poor fit]; under setting [1], 20.6 µM [falling, partial curve].

For `COc1ccc(N(C)S(=O)(=O)c2cccc(C(=O)Nc3nc(C)c(C(C)=O)s3)c2)cc1`, the AC50 under setting [1] was 0.0291 µM [falling, full curve, poor fit].

`Cc1ccc(NC(=O)CSc2nnnn2-c2ccc3c(c2)OCO3)cc1C`: the cell number change was -45.4%. Besides, the AC50 under setting [2] was 9.2 µM [falling, partial curve]. Also, under setting [1], the AC50 is 14.6 µM [falling, partial curve].

Take `CCOC(=O)C1=NN(c2ccccc2C)C2=NC(C)=C(C(=O)OC)C(c3cccc(OC)c3)N12` (stereo not given): the cell number change is -9.7%. In addition, under setting [1], the AC50 was 2.31 µM [rising, partial curve].

As to `COc1cccc(C(=O)COC(=O)c2n[nH]c(=O)c3ccccc23)c1`, the cell number change amounted to 65%. In addition, the AC50 under setting [2] was 14.6 µM [rising, partial curve]. The AC50 under setting [1] is 20.6 µM [rising, partial curve].

For `CN(C)C(=O)c1ccc(-n2nc(C(F)(F)F)c3c2CCCC3)cc1`, the cell number change is -6.28%. Moreover, the AC50 under setting [2] was 0.517 µM [rising, partial curve]. Besides, the half-maximal activity concentration (AC50) under setting [1] is 2.31 µM [rising, partial curve].

Consider `CCOC(=O)Cc1csc(NC(=O)c2cccc(OC)c2)n1`, for which the cell number change is -0.156%.

Take `O=C1/C(=C\c2cccc(O)c2)SC(=S)N1Cc1ccccc1`: the cell number change is -34.7%. Also, under setting [2], the AC50 is 11.6 µM [falling, partial curve, poor fit].

For `C(=N\n1cnnc1)/c1ccccn1`, the cell number change was -11.3%. Besides, the AC50 under setting [1] was 29.1 µM [falling, single point].

Consider `CCNc1nc(NC(C)C)nc(Nn2cnnc2)n1`, for which the cell number change was -24.8%. For the same compound, under setting [2], the AC50 is 0.82 µM [falling, full curve, poor fit]. For the same compound, the AC50 under setting [1] is 3.66 µM [falling, full curve].

`COc1ccc(C(=O)NC(=S)NNC(=O)COc2ccccc2)cc1`: the cell number change was -12.4%.

For the compound `O=C(CSc1nc2ccsc2c(=O)n1NC(=O)c1ccccc1)Nc1nccs1`, the cell number change was -21.5%. For the same compound, under setting [1], the AC50 is 29.1 µM [falling, partial curve, poor fit].

With `COC(=O)c1cc2cc(NS(=O)(=O)c3ccc(C)cc3)ccc2s1`, the cell number change is -64.6%. Further, the AC50 under setting [2] is 20.6 µM [falling, partial curve]. Also, the AC50 under setting [1] is 20.6 µM [falling, partial curve].

On to `CCN1C(=O)C(O)(CC(=O)c2ccc3c(c2)OCCO3)c2ccccc21` (stereo not given), for which the cell number change came to 14.2%. Besides, under setting [1], the concentration at half-maximal activity (AC50) is 0.731 µM [rising, full curve, poor fit].

Take `CC(c1ccccc1)n1c(-c2ccncc2)n[nH]c1=S` (stereo not given): the cell number change is 4.14%. Moreover, the AC50 under setting [1] is 29.1 µM [rising, single point].

For the compound `Cc1cccc(C)c1NC(=O)CC(NCc1ccco1)C(=O)O` (stereo not given), the cell number change is -105%. Further, the concentration at half-maximal activity (AC50) under setting [2] was 25.9 µM [falling, partial curve, poor fit]. Further, under setting [1], the AC50 was 0.184 µM [falling, full curve].

On to `O=C(/C=C/c1ccccc1)N1CCC(c2ccccc2)C1` (stereo not given), for which the cell number change amounted to 11.7%.

Consider `C[C@@H]1C(=O)OC[C@H]1NC(=O)OCc1ccccc1`, for which the cell number change was -10.4%. Besides, under setting [1], the AC50 is 0.651 µM [rising, full curve, poor fit].

On to `Cc1cc(NC(=O)CSc2cc(Cl)ccc2Cl)n(-c2ccccc2)n1`, for which the cell number change is -21.8%. The AC50 under setting [1] is 4.11 µM [falling, full curve].

With `O=S(=O)(c1ccc(NC(=S)N2CCN(c3ccccc3F)CC2)cc1)N1CCOCC1`, the cell number change was -6.89%.

As to `COCCNC(=O)c1cn(CCOC)c(=O)c2c1c1ccccc1n2C`, the cell number change was found to be 41.4%. Also, the AC50 under setting [2] is 29.1 µM [rising, single point].

As to `COc1ccc(C(=O)Nc2ccccc2C(=O)N2CCOCC2)cc1`, the cell number change was -8.75%. Moreover, the AC50 under setting [1] was 0.184 µM [rising, single point].

`CCC(C)N(NC(C)=O)c1nc(Cl)nc(NC(C)(C)C)n1` (stereo not given): the AC50 was 6.51 µM [falling, single point] under setting [2] and 6.51 µM [falling, single point] under setting [1].
